For 1 molecule, binding results are on record in publication doi:10.1101/068262 (bioRxiv, 2016).

By UniProt entry, the sequences of proteins in these tests, tags left out.
UniProt O00472: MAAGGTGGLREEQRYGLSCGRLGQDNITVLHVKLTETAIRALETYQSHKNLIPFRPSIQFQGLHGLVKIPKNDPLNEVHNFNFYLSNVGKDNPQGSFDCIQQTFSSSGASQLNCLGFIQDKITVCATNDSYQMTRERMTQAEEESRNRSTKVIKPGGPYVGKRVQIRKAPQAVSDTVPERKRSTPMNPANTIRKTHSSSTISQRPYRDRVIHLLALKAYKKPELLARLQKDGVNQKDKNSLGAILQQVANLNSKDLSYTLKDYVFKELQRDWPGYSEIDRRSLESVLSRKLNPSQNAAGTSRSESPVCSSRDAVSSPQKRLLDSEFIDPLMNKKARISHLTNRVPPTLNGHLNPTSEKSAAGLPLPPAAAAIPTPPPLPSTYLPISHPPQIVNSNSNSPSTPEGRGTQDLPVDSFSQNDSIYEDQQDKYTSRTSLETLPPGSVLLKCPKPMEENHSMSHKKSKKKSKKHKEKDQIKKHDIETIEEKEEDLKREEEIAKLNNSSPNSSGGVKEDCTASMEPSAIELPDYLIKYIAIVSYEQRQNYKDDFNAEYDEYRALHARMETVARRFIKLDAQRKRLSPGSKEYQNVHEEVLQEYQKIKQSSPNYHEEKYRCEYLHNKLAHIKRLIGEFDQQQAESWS

What all share (assay): co-IP
The target of assay [1] is T1, FLAG-AFF4 Δ970-1163 P329G (UniProt Q9UHB7).
T1 sequence: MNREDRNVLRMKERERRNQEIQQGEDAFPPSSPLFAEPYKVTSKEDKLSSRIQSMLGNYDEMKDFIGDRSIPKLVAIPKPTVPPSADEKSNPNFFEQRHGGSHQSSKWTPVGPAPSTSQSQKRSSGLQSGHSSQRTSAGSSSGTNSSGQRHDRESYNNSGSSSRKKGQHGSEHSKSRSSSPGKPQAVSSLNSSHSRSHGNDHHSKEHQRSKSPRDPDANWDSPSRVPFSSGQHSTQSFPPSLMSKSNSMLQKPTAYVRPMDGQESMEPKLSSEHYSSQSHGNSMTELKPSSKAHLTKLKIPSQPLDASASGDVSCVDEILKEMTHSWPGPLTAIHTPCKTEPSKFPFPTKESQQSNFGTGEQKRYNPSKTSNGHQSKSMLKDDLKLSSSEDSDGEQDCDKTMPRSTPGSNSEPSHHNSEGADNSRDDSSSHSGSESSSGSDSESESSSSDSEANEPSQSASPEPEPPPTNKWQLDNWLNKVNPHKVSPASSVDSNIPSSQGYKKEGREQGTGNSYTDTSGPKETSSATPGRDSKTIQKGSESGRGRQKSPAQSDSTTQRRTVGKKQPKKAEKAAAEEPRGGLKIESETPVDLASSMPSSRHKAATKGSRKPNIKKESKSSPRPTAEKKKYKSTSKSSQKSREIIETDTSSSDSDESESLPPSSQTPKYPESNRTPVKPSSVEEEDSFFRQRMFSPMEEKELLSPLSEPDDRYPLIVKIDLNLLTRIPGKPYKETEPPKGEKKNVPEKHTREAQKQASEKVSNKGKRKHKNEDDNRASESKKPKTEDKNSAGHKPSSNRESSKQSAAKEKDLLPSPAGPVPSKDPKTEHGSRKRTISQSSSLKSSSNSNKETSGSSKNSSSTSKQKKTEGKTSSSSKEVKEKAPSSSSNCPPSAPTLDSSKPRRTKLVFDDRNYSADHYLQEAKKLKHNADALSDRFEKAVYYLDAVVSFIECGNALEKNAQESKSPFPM

Assay [2] concerns the target T2, FLAG-AFF4 Δ970-1163 I334D (UniProt Q9UHB7).
T2 sequence: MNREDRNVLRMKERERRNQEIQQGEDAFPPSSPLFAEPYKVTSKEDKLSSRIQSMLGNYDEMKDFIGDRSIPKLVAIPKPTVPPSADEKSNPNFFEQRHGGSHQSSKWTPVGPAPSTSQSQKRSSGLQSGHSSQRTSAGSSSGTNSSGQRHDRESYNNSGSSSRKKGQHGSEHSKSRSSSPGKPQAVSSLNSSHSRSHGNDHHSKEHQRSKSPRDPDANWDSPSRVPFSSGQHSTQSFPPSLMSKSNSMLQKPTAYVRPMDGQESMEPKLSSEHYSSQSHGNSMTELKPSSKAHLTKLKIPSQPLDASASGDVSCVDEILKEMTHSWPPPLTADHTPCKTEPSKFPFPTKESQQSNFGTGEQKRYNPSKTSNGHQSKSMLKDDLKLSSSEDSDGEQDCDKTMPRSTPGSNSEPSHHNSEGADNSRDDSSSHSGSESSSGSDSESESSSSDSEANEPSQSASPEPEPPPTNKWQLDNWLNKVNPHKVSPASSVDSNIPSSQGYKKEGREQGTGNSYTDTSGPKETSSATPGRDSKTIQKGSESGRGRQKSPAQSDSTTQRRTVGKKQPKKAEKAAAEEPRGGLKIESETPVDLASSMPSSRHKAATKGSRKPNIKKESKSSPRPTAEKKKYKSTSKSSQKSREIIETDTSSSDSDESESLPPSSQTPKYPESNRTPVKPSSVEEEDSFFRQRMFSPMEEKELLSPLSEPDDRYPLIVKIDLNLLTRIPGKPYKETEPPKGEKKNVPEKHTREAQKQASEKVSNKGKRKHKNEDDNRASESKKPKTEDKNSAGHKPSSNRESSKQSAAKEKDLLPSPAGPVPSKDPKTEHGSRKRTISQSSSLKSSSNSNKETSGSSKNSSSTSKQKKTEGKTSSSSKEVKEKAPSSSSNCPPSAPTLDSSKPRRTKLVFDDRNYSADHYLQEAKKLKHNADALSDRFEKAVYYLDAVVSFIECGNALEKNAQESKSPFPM

Assay [3] has as its target T3, FLAG-AFF4 Δ970-1163 L320D (UniProt Q9UHB7).
T3 sequence: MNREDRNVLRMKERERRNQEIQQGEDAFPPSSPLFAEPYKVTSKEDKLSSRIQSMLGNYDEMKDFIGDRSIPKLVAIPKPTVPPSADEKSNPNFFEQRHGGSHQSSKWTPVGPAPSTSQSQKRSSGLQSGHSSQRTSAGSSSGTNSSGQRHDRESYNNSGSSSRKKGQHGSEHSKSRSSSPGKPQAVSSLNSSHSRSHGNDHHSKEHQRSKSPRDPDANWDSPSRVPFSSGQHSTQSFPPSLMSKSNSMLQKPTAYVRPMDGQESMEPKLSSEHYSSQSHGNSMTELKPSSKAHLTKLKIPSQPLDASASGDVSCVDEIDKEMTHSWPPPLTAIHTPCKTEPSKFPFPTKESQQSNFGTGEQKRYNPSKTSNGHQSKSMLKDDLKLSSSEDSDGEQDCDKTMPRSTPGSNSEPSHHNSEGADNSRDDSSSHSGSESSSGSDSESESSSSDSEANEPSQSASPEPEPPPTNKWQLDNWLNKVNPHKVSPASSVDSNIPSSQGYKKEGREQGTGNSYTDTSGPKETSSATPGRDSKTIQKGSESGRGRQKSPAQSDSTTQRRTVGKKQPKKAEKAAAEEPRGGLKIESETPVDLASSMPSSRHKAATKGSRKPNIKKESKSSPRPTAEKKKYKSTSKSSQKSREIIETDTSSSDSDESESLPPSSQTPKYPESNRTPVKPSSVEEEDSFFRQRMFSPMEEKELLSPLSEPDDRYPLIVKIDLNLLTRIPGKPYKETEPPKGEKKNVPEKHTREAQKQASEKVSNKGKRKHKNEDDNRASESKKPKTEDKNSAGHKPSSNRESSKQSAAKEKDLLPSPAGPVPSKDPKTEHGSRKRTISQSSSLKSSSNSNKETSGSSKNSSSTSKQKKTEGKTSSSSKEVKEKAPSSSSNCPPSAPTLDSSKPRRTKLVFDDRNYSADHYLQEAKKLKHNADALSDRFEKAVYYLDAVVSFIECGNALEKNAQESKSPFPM

The target in assay [4] is HA-tagged wild-type ELL2 (human) (UniProt O00472).

No constants are given. Whether binding was seen depends on the method and setting. In cells and extracts the contact can be indirect. Some entries that bind do so weakly or less than the wild type. For some of these results: Tags and fused reporters may be left off the sequences shown.

B1: ELL1 in nuclear extracts (protein, UniProt P55199 1-621)
chain: MAALKEDRSYGLSCGRVSDGSKVSVFHVKLTDSALRAFESYRARQDSVSLRPSIRFQGSQGHISIPQPDCPAEARTFSFYLSNIGRDNPQGSFDCIQQYVSSHGEVHLDCLGSIQDKITVCATDDSYQKARQSMAQAEEETRSRSAIVIKAGGRYLGKKVQFRKPAPGATDAVPSRKRATPINLASAIRKSGASAVSGGSGVSQRPFRDRVLHLLALRPYRKAELLLRLQKDGLTQADKDALDGLLQQVANMSAKDGTCTLQDCMYKDVQKDWPGYSEGDQQLLKRVLVRKLCQPQSTGSLLGDPAASSPPGERGRSASPPQKRLQPPDFIDPLANKKPRISHFTQRAQPAVNGKLGVPNGREALLPTPGPPASTDTLSSSTHLPPRLEPPRAHDPLADVSNDLGHSGRDCEHGEAAAPAPTVRLGLPLLTDCAQPSRPHGSPSRSKPKKKSKKHKDKERAAEDKPRAQLPDCAPATHATPGAPADTPGLNGTCSVSSVPTSTSETPDYLLKYAAISSSEQRQSYKNDFNAEYSEYRDLHARIERITRRFTQLDAQLRQLSQGSEEYETTRGQILQEYRKIKKTNTNYSQEKHRCEYLHSKLAHIKRLIAEYDQRQLQAWP
With B1, the binding entry in assay [1] is “no binding”; in assay [2], “no binding”; in assay [3] it was “no binding”; in assay [4], “binds”.
